# No constants are given. Whether binding was seen depends on the method and setting. In cells and extracts the contact can be indirect. A result given as binding can be weak or reduced; the word gives no strength. Where a sequence is shown, tags or fusion partners need not be part of it.
# B1: HaloTag-PDP2 (pyruvate dehydrogenase phosphatase catalytic subunit 2) (enzyme, UniProt Q9P2J9 67-529)
# chain: STEEDDFHLQLSPEQINEVLRAGETTHKILDLESRVPNSVLRFESNQLAANSPVEDRRGVASCLQTNGLMFGIFDGHGGHACAQAVSERLFYYVAVSLMSHQTLEHMEGAMESMKPLLPILHWLKHPGDSIYKDVTSVHLDHLRVYWQELLDLHMEMGLSIEEALMYSFQRLDSDISLEIQAPLEDEVTRNLSLQVAFSGATACMAHVDGIHLHVANAGDCRAILGVQEDNGMWSCLPLTRDHNAWNQAELSRLKREHPESEDRTIIMEDRLLGVLIPCRAFGDVQLKWSKELQRSILERGFNTEALNIYQFTPPHYYTPPYLTAEPEVTYHRLRPQDKFLVLASDGLWDMLSNEDVVRLVVGHLAEADWHKTDLAQRPANLGLMQSLLLQRKASGLHEADQNAATRLIRHAIGNNEYGEMEAERLAAMLTLPEDLARMYRDDITVTVVYFNSESIGAYYKGG
# Molecular target: NanoLuc-tagged HBc (hepatitis B virus)
# Assay: FRET or BRET; NanoBRET screen in living HEK293 cells: NanoLuc-fused HBc and 150 HaloTag-fused phosphatases co-transfected (HaloTag:NanoLuc vectors 100:1), read 48 h after transfection; BRET ratio >0.2 as threshold
binder,measurement,value
B1,binding,binds
